Experiment: Scintillation light output (LO) from ^137Cs gamma-ray response, relative to EJ-309 standard

Compound | LO relative to EJ-309 (single dye solutions (bis-MSB, BBQ, E404) in 90:10 DIPN:IBA) | LO relative to EJ-309 (loaded EJ-309, 0.1 wt. % ^6Li) | decrease of relative LO (single-dye solutions of bis-MSB, BBQ or E404, 0.1 wt. % ^6Li)
CC(C)CC(=O)[O-].[6Li+] [^6LiIVA] | more than 80% |  | 
CCCCC(CC)COC(=O)CC(C(=O)OCC(CC)CCCC)S(=O)(=O)[O-].[Li+] (stereo not drawn) [^6LiDOSS, lithium 1,4-bis(2-ethylhexoxy)-1,4-dioxobutane-2-sulfonate] |  | 90% | 6 to 10%
